Source: PubChem BioAssay AID2685 (National Center for Advancing Translational Sciences (NCATS), 2010)
The other results are listed elsewhere or left out. Further columns of the screen follow, without active or inactive calls. Most of these compounds were active or inconclusive in the main read-out, so they are no random draw. Words in brackets tell the shape of the fitted curve; partial curves, single points and poor fits give uncertain potencies.

Assay: qHTS Assay for Lipid Storage Modulators in Drosophila S3 Cells;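 for cell number change: cells counted by Cell Tracker Red CMTPX staining in the red channel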
Settings: BODIPY lipid droplet fluorescence, 18-24 h; for cell number change: measured here: cell count max response, cells fed with added oleic acid
How it was run: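 Drosophila S3 cells loaded with oleic acid (400 uM, as added) and compounds at several concentrations; lipid droplets imaged by 488-nm laser-scanning cytometry, 500–530 nm intensity and object ratio to cell channel. Percent activity normalized to 20 uM Triacsin C.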

[1] = measured here: lipid fluorescence (Fed channel) AC50, cells fed with added oleic acid
[2] = measured here: cell number channel AC50, cells fed with added oleic acid

Structure (SMILES) | cell number change | AC50 [1] | AC50 [2]
COc1ccc(S(=O)(=O)N2CCC(O)(c3ccc(Cl)cc3)CC2)cc1 | -8.79% | 20.6 µM [rising, single point] | –
COc1ccccc1-c1noc(-c2ccncc2)n1 | -0.291% | 18.4 µM [rising, single point] | –
COc1cc(C(=O)Nc2ccccc2N2CCCCC2)cc(OC)c1OC | 11.1% | 3.26 µM [rising, partial curve] | –
Cc1nc2ccc3nc(NC(=O)C4COc5ccccc5O4)sc3c2s1 (stereo not drawn) | -48% | – | 14.6 µM [falling, single point]
COc1cc(/C=N/NC(=O)c2cc(-c3cccn3C)n[nH]2)cc(OC)c1OC | 6.9% | 13 µM [rising, partial curve] | –
CCC(=O)C1CCCN(C(=O)CCc2nnc(-c3ccc(C(C)=O)s3)o2)C1 (stereo not drawn) | 9.17% | 32.6 µM [falling, single point] | –
COC(=O)c1c(C)[nH]c(O)c1C=Nc1ccc(Oc2ccccc2)cc1 | 17.8% | 6.51 µM [falling, single point] | –
CCCOC(=O)COC(=O)c1ccccc1NC(=O)c1ccccc1 | -6.51% | 2.59 µM [rising, full curve, poor fit] | –
Cc1cc(NS(=O)(=O)c2ccc(NC(=O)C(C)Oc3ccc(C(C)C)cc3)cc2)no1 (stereo not drawn) | 6.09% | – | –
O=S(=O)(Cc1ccc(Cl)cc1)NCC1CCCO1 (stereo not drawn) | 0.334% | 23.1 µM [falling, partial curve] | –
CC1(C)OC(=O)N(c2cccnc2)C1(C)O (stereo not drawn) | -91.3% | – | 32.6 µM [falling, single point]
CCOc1ccc(-n2nnnc2SCC(=O)Nc2ccc(NC(C)=O)cc2)cc1 | -18.3% | 0.92 µM [falling, full curve, poor fit] | –
Cc1ccc2cc(CCNC(=O)c3ccc4c(c3)OCO4)c(=O)[nH]c2c1 | 57.6% | 1.64 µM [rising, partial curve] | 5.17 µM [rising, partial curve, poor fit]
Cc1csc(=O)n1CC(=O)OCC(=O)c1c(N)n(C)c(=O)n(C)c1=O | -82.5% | – | –
Nc1ccc2c(c1)C(=O)N(CCCC(=O)O)C2=O | -12.6% | 20.6 µM [falling, single point] | –
Clc1ccc(SCCCCn2cncn2)cc1 | 16.4% | – | –
COC(=O)CNC(=O)CN1C(=O)N(c2ccccc2)C(N(O)C(=O)Nc2ccccc2)C1(C)C (stereo not drawn) | 126% | – | 29.1 µM [rising, partial curve, poor fit]
CCOc1ccc(C(c2c(NC(=O)c3ccccc3)sc(C)c2C)N2CCN(C)CC2)cc1 (stereo not drawn) | -53% | 18.4 µM [falling, single point] | 20.6 µM [falling, single point]
Cc1cc(C)n2nc(C(=O)OCC(=O)N(C)Cc3ccccc3)nc2n1 | 0.803% | – | –

Structure (SMILES) | cell number change | AC50 [1] | AC50 [2]
COc1ccc(CC(=O)NNC(=O)c2ccco2)cc1 | 15.8% | – | –
Cc1ccc(S(=O)(=O)N2C(=O)[C@@H]3Cc4ccccc4CN3C2=O)cc1 | 15.3% | – | –
Cc1cccc(NC(=O)CSc2nccn2Cc2ccco2)c1 | 2.09% | 0.58 µM [falling, single point] | –
C=CCn1c(SCC(=O)Nc2ccc(OC)cc2)nc2ccccc2c1=O | 109% | – | 29.1 µM [rising, single point]
COc1ccc2[nH]c3c(=O)n(N)c(=O)[nH]c3c2c1 | 60.6% | – | 0.0206 µM [rising, full curve]
COc1ccc(CN(C)C(=O)CNC(=O)c2ccc(C)cc2)cc1 | -14.5% | – | –
CS(=O)(=O)c1ccc(Cl)c(NC(=O)c2cc(=O)[nH]c3ccc(S(=O)(=O)N4CCOCC4)cc23)c1 | -24% | 8.2 µM [falling, partial curve, poor fit] | –
O=C(NCCNC(=O)c1ccccn1)c1ccc(-c2ccccc2)cc1 | -32.1% | – | 13 µM [falling, single point]
Cc1c(C)c2ccc(OC(C)C(=O)N3CC[C@@]4(O)CCCC[C@H]4C3)cc2oc1=O (stereo partly drawn) | 15% | – | 6.51 µM [rising, single point]
O=C(CN1CCN(S(=O)(=O)c2ccc(F)cc2)CC1)Nc1cccc(C(F)(F)F)c1 | -3.74% | 16.4 µM [falling, single point] | 5.8 µM [rising, single point]
CN(C)S(=O)(=O)c1ccc2nnn(OCC(=O)NC3CCS(=O)(=O)C3)c2c1 (stereo not drawn) | 21.7% | 0.116 µM [rising, full curve, poor fit] | –
Clc1ccc(/C=C/c2ncc[nH]2)c(Cl)c1 | 19.6% | 13 µM [rising, single point] | –
CCOc1cccc(Nc2cc3n(c(=O)n2)CCc2cc(OC)c(OC)cc2-3)c1 | -30.4% | 23.1 µM [falling, single point] | 14.6 µM [falling, partial curve, poor fit]
CN(C(=O)COC(=O)c1ccc2c(c1)OCO2)c1c(N)n(Cc2ccccc2)c(=O)[nH]c1=O | 41.3% | – | 29.1 µM [rising, single point]
O=C1CC(Nc2ccc(N3CCOCC3)cc2)C(=O)N1c1ccccc1 (stereo not drawn) | 15.6% | 16.4 µM [rising, partial curve, poor fit] | –
c1ccc(Cn2c(Sc3nnnn3-c3ccccc3)nnc2-c2ccccc2)cc1 | 182% | 6.51 µM [rising, partial curve] | 9.2 µM [rising, partial curve]
Cc1nnc(NC(=O)CSc2nnc(Cc3cccn3C)n2-c2cccc(C)c2C)s1 | 6.98% | 0.291 µM [rising, partial curve, poor fit] | 0.326 µM [rising, full curve, poor fit]
O=C(Nc1ccccc1Cl)C1CCCN(c2ncnc3c2nc2n3CCCCC2)C1 (stereo not drawn) | -3.44% | – | –
CC(C)=C1SC(N2CCN(c3cccc(C)c3)CC2)=NC1=O | 33.1% | 0.461 µM [falling, full curve, poor fit] | 16.4 µM [rising, single point]

Structure (SMILES) | cell number change | AC50 [1] | AC50 [2]
O=S(Cc1ccc(Br)cc1)Cc1nnc(SCc2ccc(Cl)cc2)n1-c1ccccc1 (stereo not drawn) | -42.9% | 0.58 µM [falling, partial curve] | 5.8 µM [falling, partial curve]
Cc1nc2cc(Cl)ccc2n1CCO | -3.11% | 4.11 µM [falling, single point] | –
CCOC(=O)c1c(C)nc2ccccn12 | -19.2% | 0.092 µM [falling, full curve] | –
Cc1c(Cl)cccc1NC(=S)N(CCCN1CCOCC1)Cc1ccco1 | – | 0.103 µM [rising, partial curve, poor fit] | 0.092 µM [rising, full curve, poor fit]
Cc1ccc(S(=O)(=O)N2CCN(C(=O)c3ccccc3Cc3ccccc3)CC2)c(C)c1 | -5.45% | 2.91 µM [rising, single point] | –
COc1ccc(NC(=O)CC2C(=O)N(c3ccc(OC)cc3)C(=O)N2Cc2ccc(OC)c(OC)c2)cc1 (stereo not drawn) | -36.5% | – | –
CC(=O)c1c(C)[nH]c(C(=O)OCC(=O)c2c[nH]c3ccccc23)c1C | -50.6% | – | 29.1 µM [falling, single point]
COc1ccc(S(=O)(=O)N(C)CC(=O)NC2CCCCC2)cc1Cl | 41.3% | 6.51 µM [falling, single point] | 29.1 µM [rising, single point]
O=C(CSc1nc2ccccc2c(=O)[nH]1)Nc1ccc(N2CCOCC2)c(Cl)c1 | 8.57% | 6.51 µM [falling, single point] | –
CCCc1cc(=O)oc2cc(C)cc(OCC(=O)NCCCN3CCOCC3)c12 | -2.97% | 29.1 µM [rising, single point] | –
COc1cc(OC)cc(C(=O)NC(C(=O)OCn2nnc3ccccc3c2=O)C(C)C)c1 (stereo not drawn) | -0.774% | 6.51 µM [falling, single point] | –
COc1ccccc1C(=O)n1nc(-c2ccc(Cl)cc2)nc1N | -72.6% | 29.1 µM [falling, single point] | 11.6 µM [falling, partial curve]
O=C(CNC(=O)c1ccccc1)N/N=C/c1cn[nH]c1-c1ccccc1 | 5.51% | 6.51 µM [rising, single point] | –
CN(C)S(=O)(=O)c1cccc(NC(=O)c2cccc(S(=O)(=O)N3CCCCCC3)c2)c1 | – | 3.66 µM [falling, full curve] | –
COCCN(C(=O)Cc1cccs1)C(C(=O)NCc1ccc(OC)cc1)c1ccc(OC)cc1 (stereo not drawn) | -7.21% | 29.1 µM [falling, single point] | 3.66 µM [falling, single point]
Cc1nnc(SCC(=O)Nc2cc(S(=O)(=O)N3CCCC3)ccc2Cl)n1C1CC1 | 0.98% | 0.146 µM [rising, full curve, poor fit] | 0.13 µM [rising, full curve, poor fit]
O=C(OCCc1cc2ccccc2c(=O)o1)c1ccc2c(c1)OCO2 | -43.7% | 0.82 µM [falling, single point] | 1.16 µM [falling, full curve]
CSc1ccc(N2CCN(CCCNC(=O)Nc3ccccc3F)CC2)cc1 | 81.5% | 29.1 µM [rising, single point] | 14.6 µM [rising, partial curve, poor fit]
O=S(=O)(c1ccc2c(c1)OCCO2)N1CCN(c2nc3ccccc3s2)CC1 | 16.6% | 13 µM [rising, single point] | –

A second format for part of the listing above.
Structure (SMILES)	cell number change	AC50 [1]	AC50 [2]
Cc1nc2ccc3nc(NC(=O)C4COc5ccccc5O4)sc3c2s1 (stereo not drawn)	-48%	–	14.6 µM [falling, single point]
COc1cc(/C=N/NC(=O)c2cc(-c3cccn3C)n[nH]2)cc(OC)c1OC	6.9%	13 µM [rising, partial curve]	–

Part of the list above in order of SMILES length, rising.
Structure (SMILES) | cell number change | AC50 [1] | AC50 [2]
Clc1ccc(/C=C/c2ncc[nH]2)c(Cl)c1 | 19.6% | 13 µM [rising, single point] | –
O=S(=O)(c1ccc2c(c1)OCCO2)N1CCN(c2nc3ccccc3s2)CC1 | 16.6% | 13 µM [rising, single point] | –
COc1cc(OC)cc(C(=O)NC(C(=O)OCn2nnc3ccccc3c2=O)C(C)C)c1 (stereo not drawn) | -0.774% | 6.51 µM [falling, single point] | –
